Where two headings read alike, the source gives them in different places. Results are given in words; binding and its absence hold for the method and conditions named. Binding seen in cells or lysates may run through a third protein. A yes stands for co-enrichment or nearness to the bait. Other partners may have been found.
Key:
Test in all cases: proximity labelling
[1] = molecular target: BirA*-tagged EPLINβ (pPB-TagBFP-T2A-myc-BirA*-EPLINβ) (human) (UniProt Q9UHB6)
[2] = molecular target: BirA*-tagged EPLINα (pPB-TagBFP-T2A-myc-BirA*-EPLINα) (human) (UniProt Q9UHB6)
[3] = molecular target: BirA*-tagged EPLINβ (pPB-TagBFP-T2A-myc-BirA*-EPLINβ) (human) (UniProt Q9UHB6); remark: listed apart in the source
[4] = molecular target: BirA*-tagged EPLINα (pPB-TagBFP-T2A-myc-BirA*-EPLINα) (human) (UniProt Q9UHB6); remark: listed apart in the source

By UniProt entry, the sequences of proteins in these tests, tags left out. Where a name states a change or a piece, a line headed by the entry shows the natural chain unless it says otherwise. Chains listed by the source or under a name are the forms on record and can include a tag or linker. Residues count along the entry.
UniProt Q9UHB6: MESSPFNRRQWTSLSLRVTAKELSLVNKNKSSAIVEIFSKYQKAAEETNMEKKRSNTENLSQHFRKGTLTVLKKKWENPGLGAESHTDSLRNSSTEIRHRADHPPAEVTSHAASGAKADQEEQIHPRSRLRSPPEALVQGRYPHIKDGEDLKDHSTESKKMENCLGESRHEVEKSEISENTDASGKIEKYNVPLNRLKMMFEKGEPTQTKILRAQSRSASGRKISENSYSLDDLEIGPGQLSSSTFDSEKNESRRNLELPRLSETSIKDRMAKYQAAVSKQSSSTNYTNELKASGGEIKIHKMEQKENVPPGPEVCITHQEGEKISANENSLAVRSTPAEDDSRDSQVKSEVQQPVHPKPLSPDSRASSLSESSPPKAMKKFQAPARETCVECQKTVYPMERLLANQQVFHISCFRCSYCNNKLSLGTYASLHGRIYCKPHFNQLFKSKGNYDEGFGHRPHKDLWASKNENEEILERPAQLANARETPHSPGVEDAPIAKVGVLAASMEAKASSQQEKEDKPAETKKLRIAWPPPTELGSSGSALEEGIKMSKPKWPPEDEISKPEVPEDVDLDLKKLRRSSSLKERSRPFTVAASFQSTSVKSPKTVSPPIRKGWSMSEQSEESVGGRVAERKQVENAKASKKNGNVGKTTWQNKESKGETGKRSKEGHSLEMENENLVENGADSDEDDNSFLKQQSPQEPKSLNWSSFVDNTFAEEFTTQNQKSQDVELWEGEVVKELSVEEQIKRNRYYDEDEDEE
BirA*-tagged EPLINα (pPB-TagBFP-T2A-myc-BirA*-EPLINα): residues 161-759 of Q9UHB6
UniProt Q9ULV4: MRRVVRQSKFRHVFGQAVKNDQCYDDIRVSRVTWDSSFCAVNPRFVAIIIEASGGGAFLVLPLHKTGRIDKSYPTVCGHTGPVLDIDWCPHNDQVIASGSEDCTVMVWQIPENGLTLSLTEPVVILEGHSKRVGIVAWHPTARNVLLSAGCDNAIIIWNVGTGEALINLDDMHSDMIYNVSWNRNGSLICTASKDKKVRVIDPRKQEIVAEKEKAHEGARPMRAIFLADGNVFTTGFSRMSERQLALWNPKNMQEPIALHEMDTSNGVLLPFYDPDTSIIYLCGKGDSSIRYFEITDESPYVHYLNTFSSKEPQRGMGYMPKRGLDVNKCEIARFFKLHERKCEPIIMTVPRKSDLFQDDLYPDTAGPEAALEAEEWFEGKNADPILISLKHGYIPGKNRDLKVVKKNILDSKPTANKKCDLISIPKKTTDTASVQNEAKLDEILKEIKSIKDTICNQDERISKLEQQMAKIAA
UniProt Q70E73: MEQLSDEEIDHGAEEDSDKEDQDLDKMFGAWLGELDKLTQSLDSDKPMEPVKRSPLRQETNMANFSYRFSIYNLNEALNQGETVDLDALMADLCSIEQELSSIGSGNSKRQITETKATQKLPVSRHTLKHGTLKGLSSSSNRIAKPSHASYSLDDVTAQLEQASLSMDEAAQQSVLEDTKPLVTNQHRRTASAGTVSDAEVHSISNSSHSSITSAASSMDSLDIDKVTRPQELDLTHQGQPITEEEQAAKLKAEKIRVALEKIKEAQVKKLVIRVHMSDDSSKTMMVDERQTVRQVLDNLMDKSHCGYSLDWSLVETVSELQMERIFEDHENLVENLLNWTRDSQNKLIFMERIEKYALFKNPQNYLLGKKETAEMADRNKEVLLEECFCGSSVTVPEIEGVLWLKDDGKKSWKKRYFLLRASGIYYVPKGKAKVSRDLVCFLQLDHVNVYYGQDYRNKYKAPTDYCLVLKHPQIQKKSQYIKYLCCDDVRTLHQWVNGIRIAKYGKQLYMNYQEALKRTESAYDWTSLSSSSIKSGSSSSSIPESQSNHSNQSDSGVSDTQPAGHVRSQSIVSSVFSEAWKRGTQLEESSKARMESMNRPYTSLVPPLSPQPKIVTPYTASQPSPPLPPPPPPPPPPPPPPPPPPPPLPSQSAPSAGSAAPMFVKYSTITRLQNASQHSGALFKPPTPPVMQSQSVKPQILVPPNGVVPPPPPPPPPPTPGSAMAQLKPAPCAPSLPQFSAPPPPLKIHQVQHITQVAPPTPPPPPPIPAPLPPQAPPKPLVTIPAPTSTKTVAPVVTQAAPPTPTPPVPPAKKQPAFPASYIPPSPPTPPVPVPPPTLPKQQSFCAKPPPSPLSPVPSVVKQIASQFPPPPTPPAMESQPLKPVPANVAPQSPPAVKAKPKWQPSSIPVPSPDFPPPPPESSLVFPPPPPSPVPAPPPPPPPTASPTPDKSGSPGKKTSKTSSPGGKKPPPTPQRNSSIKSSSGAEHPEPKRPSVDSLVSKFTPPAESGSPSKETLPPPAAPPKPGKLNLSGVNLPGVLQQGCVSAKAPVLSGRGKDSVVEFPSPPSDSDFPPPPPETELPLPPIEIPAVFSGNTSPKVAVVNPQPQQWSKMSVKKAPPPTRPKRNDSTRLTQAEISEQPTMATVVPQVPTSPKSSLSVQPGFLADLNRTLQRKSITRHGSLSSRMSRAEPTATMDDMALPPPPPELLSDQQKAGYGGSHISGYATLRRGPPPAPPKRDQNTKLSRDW
UniProt O75369: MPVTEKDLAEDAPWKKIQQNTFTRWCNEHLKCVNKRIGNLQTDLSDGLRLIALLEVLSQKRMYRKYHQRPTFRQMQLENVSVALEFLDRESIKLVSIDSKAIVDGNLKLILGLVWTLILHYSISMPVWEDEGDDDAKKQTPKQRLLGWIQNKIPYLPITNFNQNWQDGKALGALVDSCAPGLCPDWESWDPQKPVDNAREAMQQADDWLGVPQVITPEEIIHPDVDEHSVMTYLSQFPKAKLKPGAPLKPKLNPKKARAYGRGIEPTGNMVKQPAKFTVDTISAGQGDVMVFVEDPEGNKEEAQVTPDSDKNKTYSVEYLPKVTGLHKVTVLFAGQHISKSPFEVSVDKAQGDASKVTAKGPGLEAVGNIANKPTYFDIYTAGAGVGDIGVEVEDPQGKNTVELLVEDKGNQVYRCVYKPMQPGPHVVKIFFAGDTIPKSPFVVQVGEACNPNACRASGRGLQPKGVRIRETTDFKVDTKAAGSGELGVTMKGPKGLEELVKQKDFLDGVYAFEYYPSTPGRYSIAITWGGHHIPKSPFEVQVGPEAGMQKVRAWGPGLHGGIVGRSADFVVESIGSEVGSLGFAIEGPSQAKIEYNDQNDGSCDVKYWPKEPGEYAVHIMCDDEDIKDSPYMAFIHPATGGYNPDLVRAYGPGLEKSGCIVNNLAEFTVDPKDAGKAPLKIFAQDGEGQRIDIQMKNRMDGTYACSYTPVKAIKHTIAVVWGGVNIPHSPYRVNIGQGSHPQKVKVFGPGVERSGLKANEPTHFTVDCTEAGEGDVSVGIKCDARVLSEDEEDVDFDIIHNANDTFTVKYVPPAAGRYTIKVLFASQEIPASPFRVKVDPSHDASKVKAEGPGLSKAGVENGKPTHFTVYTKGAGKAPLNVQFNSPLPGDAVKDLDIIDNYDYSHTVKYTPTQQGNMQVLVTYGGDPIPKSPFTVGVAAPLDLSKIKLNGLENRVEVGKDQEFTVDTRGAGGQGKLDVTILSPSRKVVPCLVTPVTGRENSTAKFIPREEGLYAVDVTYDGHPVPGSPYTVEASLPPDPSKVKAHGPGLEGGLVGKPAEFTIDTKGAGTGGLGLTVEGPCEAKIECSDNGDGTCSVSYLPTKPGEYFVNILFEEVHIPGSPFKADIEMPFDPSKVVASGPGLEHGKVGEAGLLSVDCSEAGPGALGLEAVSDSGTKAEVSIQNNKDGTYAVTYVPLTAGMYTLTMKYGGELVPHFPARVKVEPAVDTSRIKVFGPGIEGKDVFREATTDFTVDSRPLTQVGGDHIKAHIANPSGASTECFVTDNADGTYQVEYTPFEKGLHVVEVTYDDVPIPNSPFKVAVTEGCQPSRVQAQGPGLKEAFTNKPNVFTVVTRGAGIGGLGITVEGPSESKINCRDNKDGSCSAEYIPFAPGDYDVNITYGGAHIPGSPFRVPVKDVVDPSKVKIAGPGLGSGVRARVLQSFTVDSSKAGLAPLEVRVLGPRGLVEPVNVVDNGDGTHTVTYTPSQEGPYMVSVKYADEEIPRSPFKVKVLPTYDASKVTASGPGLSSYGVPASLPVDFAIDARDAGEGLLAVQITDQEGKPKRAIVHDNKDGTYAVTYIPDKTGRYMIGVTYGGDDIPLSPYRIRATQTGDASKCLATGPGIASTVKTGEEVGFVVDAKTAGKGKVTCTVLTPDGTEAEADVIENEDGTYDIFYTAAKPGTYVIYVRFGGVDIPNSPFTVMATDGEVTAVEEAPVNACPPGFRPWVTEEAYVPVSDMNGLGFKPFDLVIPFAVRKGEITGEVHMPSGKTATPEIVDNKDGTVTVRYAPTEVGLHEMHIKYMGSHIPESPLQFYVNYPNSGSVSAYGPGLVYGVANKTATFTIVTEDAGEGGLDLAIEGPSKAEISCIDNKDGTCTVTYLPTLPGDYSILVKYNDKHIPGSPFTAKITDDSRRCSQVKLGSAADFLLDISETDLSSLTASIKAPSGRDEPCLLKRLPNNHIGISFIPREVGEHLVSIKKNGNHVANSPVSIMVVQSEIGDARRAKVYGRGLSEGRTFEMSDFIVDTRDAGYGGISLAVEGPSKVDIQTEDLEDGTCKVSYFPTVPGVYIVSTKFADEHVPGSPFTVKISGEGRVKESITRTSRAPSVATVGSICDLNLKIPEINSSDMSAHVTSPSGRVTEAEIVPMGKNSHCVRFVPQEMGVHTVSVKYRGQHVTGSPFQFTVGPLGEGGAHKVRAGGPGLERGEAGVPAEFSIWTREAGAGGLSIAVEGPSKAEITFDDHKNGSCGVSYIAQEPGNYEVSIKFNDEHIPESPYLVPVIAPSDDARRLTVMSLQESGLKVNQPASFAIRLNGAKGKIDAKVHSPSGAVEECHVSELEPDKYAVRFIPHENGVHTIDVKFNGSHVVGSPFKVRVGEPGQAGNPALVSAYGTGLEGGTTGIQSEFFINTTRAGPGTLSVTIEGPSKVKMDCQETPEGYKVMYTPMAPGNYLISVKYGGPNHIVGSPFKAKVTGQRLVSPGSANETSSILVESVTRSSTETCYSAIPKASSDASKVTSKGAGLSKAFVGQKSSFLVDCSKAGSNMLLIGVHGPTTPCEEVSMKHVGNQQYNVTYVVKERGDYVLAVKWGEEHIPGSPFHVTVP

Molecule	binding [1]	binding [2]	also measured
coronin 1C (CORO1C) (from UniProt Q9ULV4 1-474)	binds	binds	
phosphatase SYNJ1 (from UniProt O43426 1-1573)		binds	
lamellipodin (RAPH1) (from UniProt Q70E73 1-1250)		binds	
filamin B (from UniProt O75369 1-2602)	binds		
SHROOM3 (from UniProt Q8TF72 1-1996)	binds		
filamin C (from UniProt Q14315 1-2725)	binds		
calponin CNN2 (protein, UniProt Q99439 1-309) MSSTQFNKGPSYGLSAEVKNRLLSKYDPQKEAELRTWIEGLTGLSIGPDFQKGLKDGTILCTLMNKLQPGSVPKINRSMQNWHQLENLSNFIKAMVSYGMNPVDLFEANDLFESGNMTQVQVSLLALAGKAKTKGLQSGVDIGVKYSEKQERNFDDATMKAGQCVIGLQMGTNKCASQSGMTAYGTRRHLYDPKNHILPPMDHSTISLQMGTNKCASQVGMTAPGTRRHIYDTKLGTDKCDNSSMSLQMGYTQGANQSGQVFGLGRQIYDPKYCPQGTVADGAPSGTGDCPDPGEVPEYPPYYQEEAGY			binding [3]: binds
LASP1 (protein, UniProt Q14847 1-261) MNPNCARCGKIVYPTEKVNCLDKFWHKACFHCETCKMTLNMKNYKGYEKKPYCNAHYPKQSFTMVADTPENLRLKQQSELQSQVRYKEEFEKNKGKGFSVVADTPELQRIKKTQDQISNIKYHEEFEKSRMGPSGGEGMEPERRDSQDGSSYRRPLEQQQPHHIPTSAPVYQQPQQQPVAQSYGGYKEPAAPVSIQRSAPGGGGKRYRAVYDYSAADEDEVSFQDGDTIVNVQQIDDGWMYGTVERTGDTGMLPANYVEAI			binding [4]: binds

Reference: paper doi:10.1101/2024.06.27.600789
